Test results as given in paper PMC6904836 (International Journal for Parasitology: Drugs and Drug …, 2019).
pEC50: −log10 of the molar value.

Key:
[1] = tested on: L. tropica (MHOM/SU/74/K-27 WR-2995); experiment: Luciferase amastigote macrophage assay in RAW 264.7; assay type: cell-based; conditions: Leishmania tropica, RAW264.7, 96 h, read-out: EC50 L. tropica
[2] = tested on: L. major (MHOM/SA/85/JISH118); experiment: L. major - BALB/c mouse model of CL; assay type: in vivo, BALB/c mice; conditions: for % reduction Lesion size / % reduction Parasite load: 10 days, n = 5; for % reduction Parasite load: qPCR day 11
[3] = 50 mg/kg/day, compared to the untreated control

For O=[N+]([O-])c1cn2c(n1)O[C@@H](COc1ccc(-c3ccc(F)cc3)nc1)CC2 [DNDI-0690], the pEC50 [1] was 5.63, the “lesion size reduction” value [2, 3] was “no visible nodule” and the “reduction of the parasite load as measured by qPCR” value [2, 3] was roughly 2 log-fold. For the same molecule, the “% reduction Lesion size” value ([2]; Oral, 6.25 mg/kg, QD) was 72.1%, the “% reduction Parasite load” value ([2]; Oral, 6.25 mg/kg, QD) was 50.19% and the “% reduction Lesion size” value ([2]; Oral, 12.5 mg/kg, QD) was 74.3%. The “% reduction Parasite load” value ([2]; Oral, 12.5 mg/kg, QD) was 81.24%, the “% reduction Lesion size” value ([2]; Oral, 25 mg/kg, QD) was 86.4% and the “% reduction Parasite load” value ([2]; Oral, 25 mg/kg, QD) was 84.18%. The “% reduction Lesion size” value ([2]; Oral, 50 mg/kg, QD) was 100.0%, the “% reduction Parasite load” value ([2]; Oral, 50 mg/kg, QD) was 94.89% and the “% reduction Parasite load” value ([2]; Topical, Sat sol in PG-EtOH (1:1), 50 μl BID) was 50.74%.
